# Data: PubChem BioAssay AID772 (SRMLSC, 2007)
# This is one part of the list.
# Experiment: HT29 colon tumor cell growth inhibition, primary screen, imaging, high content imaging, 72 h, CellTiter-Glo (AID 772);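 for condensed nuclei: condensed means nuclear area below control median minus 1.5 SD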
# Details: HCS imaging cell count, at 10 µM, stronger effect = higher value; condensed nuclei: measured here: percent cells with condensed nuclei; growth inhibition: measured here: ATP CellTiter-Glo viability
SMILES,condensed nuclei,growth inhibition
Cc1ccc(OCC(=O)OC2CN3CCC2CC3)cc1 (stereo unspecified),7.96%,-16.1%
Cc1cccc(OCC(=O)OC2CN3CCC2CC3)c1 (stereo unspecified),3.76%,-27.1%
CCN(CC)CC(O)COC(=O)C(O)(c1ccccc1)C1CCCCC1 (stereo unspecified),12.8%,2.25%
